Read-outs that look alike come from different tables or passages of the source. Results are given in words; binding and its absence hold for the method and conditions named. In cells and extracts the contact can be indirect. Here binding means that the protein was enriched with, or labelled near, the bait; the list need not be complete.

By UniProt entry, the sequences of proteins in these tests, tags left out.
UniProt Q9HD67: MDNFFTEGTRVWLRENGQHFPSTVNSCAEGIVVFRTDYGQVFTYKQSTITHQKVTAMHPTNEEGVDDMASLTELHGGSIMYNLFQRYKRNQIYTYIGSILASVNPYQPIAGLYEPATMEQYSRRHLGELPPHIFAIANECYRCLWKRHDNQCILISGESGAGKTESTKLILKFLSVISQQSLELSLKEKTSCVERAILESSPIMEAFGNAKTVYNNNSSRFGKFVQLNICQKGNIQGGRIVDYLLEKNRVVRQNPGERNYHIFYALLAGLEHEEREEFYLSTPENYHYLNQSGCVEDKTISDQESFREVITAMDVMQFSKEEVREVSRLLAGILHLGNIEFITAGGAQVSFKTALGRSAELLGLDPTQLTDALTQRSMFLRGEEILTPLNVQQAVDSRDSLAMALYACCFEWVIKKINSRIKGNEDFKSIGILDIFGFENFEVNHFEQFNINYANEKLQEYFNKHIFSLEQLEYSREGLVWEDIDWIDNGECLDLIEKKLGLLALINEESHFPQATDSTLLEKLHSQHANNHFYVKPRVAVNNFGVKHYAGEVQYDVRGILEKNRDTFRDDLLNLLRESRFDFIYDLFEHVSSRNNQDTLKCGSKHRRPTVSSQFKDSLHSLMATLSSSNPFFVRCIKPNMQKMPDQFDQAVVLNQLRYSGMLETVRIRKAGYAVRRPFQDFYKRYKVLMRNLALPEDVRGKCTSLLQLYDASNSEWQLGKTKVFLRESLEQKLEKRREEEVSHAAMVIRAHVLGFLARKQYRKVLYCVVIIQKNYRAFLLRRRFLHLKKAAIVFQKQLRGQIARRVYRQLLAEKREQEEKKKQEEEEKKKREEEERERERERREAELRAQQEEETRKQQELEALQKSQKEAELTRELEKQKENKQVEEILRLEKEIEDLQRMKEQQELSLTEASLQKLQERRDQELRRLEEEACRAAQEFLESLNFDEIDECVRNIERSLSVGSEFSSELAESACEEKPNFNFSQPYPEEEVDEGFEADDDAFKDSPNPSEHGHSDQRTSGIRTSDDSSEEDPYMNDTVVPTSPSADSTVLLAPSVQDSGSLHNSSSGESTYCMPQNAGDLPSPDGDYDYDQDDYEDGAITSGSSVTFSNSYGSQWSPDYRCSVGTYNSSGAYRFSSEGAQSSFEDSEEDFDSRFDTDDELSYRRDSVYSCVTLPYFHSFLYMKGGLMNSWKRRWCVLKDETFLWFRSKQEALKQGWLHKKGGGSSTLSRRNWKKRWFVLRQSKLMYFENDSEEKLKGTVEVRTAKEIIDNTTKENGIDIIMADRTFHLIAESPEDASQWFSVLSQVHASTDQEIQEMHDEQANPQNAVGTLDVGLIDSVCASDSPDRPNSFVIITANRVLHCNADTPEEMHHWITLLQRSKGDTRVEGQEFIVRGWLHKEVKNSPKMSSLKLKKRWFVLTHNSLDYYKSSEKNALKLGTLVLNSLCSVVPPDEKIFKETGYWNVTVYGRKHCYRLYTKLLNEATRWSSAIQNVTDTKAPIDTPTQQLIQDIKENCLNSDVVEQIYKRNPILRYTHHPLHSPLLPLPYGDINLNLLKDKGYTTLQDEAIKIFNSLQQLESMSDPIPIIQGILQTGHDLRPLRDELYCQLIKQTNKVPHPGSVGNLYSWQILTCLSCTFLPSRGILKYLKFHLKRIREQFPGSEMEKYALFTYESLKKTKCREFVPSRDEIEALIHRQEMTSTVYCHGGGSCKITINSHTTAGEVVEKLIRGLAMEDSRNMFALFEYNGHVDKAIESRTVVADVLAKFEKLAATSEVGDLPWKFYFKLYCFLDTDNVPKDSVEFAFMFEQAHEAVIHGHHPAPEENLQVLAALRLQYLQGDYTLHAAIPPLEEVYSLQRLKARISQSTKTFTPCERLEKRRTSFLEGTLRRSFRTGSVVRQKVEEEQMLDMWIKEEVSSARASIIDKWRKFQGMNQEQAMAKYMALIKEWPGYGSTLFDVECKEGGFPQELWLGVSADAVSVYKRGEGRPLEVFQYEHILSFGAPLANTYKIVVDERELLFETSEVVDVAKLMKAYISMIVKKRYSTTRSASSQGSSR
UniProt Q70E73: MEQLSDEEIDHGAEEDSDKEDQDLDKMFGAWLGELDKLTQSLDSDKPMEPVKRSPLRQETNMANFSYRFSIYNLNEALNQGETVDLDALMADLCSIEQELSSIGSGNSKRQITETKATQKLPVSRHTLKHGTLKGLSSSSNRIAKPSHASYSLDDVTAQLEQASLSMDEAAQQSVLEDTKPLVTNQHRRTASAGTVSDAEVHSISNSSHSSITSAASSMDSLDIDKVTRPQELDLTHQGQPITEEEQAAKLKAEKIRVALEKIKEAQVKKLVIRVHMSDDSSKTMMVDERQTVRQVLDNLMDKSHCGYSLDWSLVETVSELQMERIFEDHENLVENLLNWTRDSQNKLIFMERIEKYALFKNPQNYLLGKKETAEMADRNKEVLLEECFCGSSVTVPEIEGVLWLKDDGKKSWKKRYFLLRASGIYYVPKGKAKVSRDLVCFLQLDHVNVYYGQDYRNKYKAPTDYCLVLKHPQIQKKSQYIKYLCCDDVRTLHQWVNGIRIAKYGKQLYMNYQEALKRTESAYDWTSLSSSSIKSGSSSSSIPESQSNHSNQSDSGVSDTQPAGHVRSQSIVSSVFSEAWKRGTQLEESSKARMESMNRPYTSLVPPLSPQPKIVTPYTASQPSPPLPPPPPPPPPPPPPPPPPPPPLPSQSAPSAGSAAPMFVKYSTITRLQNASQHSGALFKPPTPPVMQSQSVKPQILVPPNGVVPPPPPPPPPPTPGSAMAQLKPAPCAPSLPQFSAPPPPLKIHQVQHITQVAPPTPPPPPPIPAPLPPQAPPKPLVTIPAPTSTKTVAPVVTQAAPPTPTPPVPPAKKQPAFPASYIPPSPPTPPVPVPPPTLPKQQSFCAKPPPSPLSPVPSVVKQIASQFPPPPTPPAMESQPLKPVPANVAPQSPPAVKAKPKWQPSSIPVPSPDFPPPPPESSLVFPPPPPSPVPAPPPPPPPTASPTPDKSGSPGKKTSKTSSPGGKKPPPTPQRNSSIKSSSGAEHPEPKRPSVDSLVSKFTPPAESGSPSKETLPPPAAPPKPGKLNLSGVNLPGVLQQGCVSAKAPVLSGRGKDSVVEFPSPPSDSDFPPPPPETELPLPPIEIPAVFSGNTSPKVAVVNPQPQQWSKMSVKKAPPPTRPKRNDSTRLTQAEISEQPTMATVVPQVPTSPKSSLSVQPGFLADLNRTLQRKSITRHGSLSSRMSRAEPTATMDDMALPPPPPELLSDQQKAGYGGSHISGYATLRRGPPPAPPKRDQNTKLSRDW

For 3 molecules, binding results are on record in paper PMC10022686.

One experiment has as its target GFP–MYO10–BioID (human) (UniProt Q9HD67). As to the kind of experiment: proximity labelling; U2-OS cells stably expressing GFP–MYO10–BioID or GFP–MYO10, on fibronectin, 50 μM biotin for 24 h; biotinylated proteins purified on streptavidin beads; mass spectrometry and western blotting. (In general: A western blot detects proteins with antibodies after separation by electrophoresis.)

In experiment [1] the target is GFP–MYO10^FERM (MyTH4/FERM domain of myosin-X) (UniProt Q9HD67). Nature of the experiment: affinity purification with mass spectrometry; GFP pulldowns in U2-OS cells stably expressing GFP, GFP–MYO10^FERM or GFP–TLN1^FERM; two biological replicates combined; hits enriched at least twofold over GFP and over TLN1^FERM.
The target is the same in experiment [2]. The description is as above. This is another data set of the same source.

With “lamellipodin (RAPH1), endogenous in U2-OS cells (from UniProt Q70E73 1-1250)”, the binding entry (with GFP–MYO10–BioID (human); in experiment [1]) was “binds” throughout.

B1: RASAL2, endogenous in U2-OS cells (protein, UniProt Q9UJF2 1-1139)
chain: MQTPEVPAERSPRRRSISGTSTSEKPNSMDTANTSPFKVPGFFSKRLKGSIKRTKSQSKLDRNTSFRLPSLRSTDDRSRGLPKLKESRSHESLLSPCSTVECLDLGRGEPVSVKPLHSSILGQDFCFEVTYLSGSKCFSCNSASERDKWMENLRRTVQPNKDNCRRAENVLRLWIIEAKDLAPKKKYFCELCLDDTLFARTTSKTKADNIFWGEHFEFFSLPPLHSITVHIYKDVEKKKKKDKNNYVGLVNIPTASVTGRQFVEKWYPVSTPTPNKGKTGGPSIRIKSRFQTITILPMEQYKEFAEFVTSNYTMLCSVLEPVISVRNKEELACALVHILQSTGRAKDFLTDLVMSEVDRCGEHDVLIFRENTIATKSIEEYLKLVGQQYLHDALGEFIKALYESDENCEVDPSKCSSSELIDHQSNLKMCCELAFCKIINSYCVFPRELKEVFASWKQQCLNRGKQDISERLISASLFLRFLCPAIMSPSLFNLMQEYPDDRTSRTLTLIAKVIQNLANFAKFGNKEEYMAFMNDFLEHEWGGMKRFLLEISNPDTISNTPGFDGYIDLGRELSVLHSLLWEVVSQLDKGENSFLQATVAKLGPLPRVLADITKSLTNPTPIQQQLRRFTEHNSSPNVSGSLSSGLQKIFEDPTDSDLHKLKSPSQDNTDSYFRGKTLLLVQQASSQSMTYSEKDERESSLPNGRSVSLMDLQDTHAAQVEHASVMLDVPIRLTGSQLSITQVASIKQLRETQSTPQSAPQVRRPLHPALNQPGGLQPLSFQNPVYHLNNPIPAMPKASIDSSLENLSTASSRSQSNSEDFKLSGPSNSSMEDFTKRSTQSEDFSRRHTVPDRHIPLALPRQNSTGQAQIRKVDQGGLGARAKAPPSLPHSASLRSTGSMSVVSAALVAEPVQNGSRSRQQSSSSRESPVPKVRAIQRQQTQQVQSPVDSATMSPVERTAAWVLNNGQYEEDVEETEQNLDEAKHAEKYEQEITKLKERLRVSSRRLEEYERRLLVQEQQMQKLLLEYKARLEDSEERLRRQQEEKDSQMKSIISRLMAVEEELKKDHAEMQAVIDAKQKIIDAQEKRIVSLDSANTRLMSALTQVKERYSMQVRNGISPTNPTKLSITENGEFKNSSC
Regarding B1, the binding entry in experiment [2] is given as “binds”.

B2: ARHGDIA, endogenous in U2-OS cells (protein, UniProt P52565 1-204)
chain: MAEQEPTAEQLAQIAAENEEDEHSVNYKPPAQKSIQEIQELDKDDESLRKYKEALLGRVAVSADPNVPNVVVTGLTLVCSSAPGPLELDLTGDLESFKKQSFVLKEGVEYRIKISFRVNREIVSGMKYIQHTYRKGVKIDKTDYMVGSYGPRAEEYEFLTPVEEAPKGMLARGSYSIKSRFTDDDKTDHLSWEWNLTIKKDWKD
As for B2, in experiment [2], the binding entry is “binds”.
